Source: patent publication US20120245128A1, “RAPID DETECTION AND QUANTIFICATION OF MODIFICATION OF MEDICINAL COMPOUNDS AND DRUG RESISTANCE ACTIVITY” (The Board of Regents of the University of Texas System, priority 2011, published 2012)

test system: β-lactamase; test: five antibiotic mixture subjected to β-lactamase, monitored by SRM; format: biochemical; details: 5 antibiotic mixture; reaction time less than 5 minutes

| Structure (SMILES) | hydrolysis by β-lactamase (SRM) |
| --- | --- |
| O=C(N[C@H](CO)[C@H](O)c1ccc([N+](=O)[O-])cc1)C(Cl)Cl [chloramphenicol] | remained unaffected |
| CC1(C)S[C@@H]2[C@H](NC(=O)[C@H](N)c3ccccc3)C(=O)N2[C@H]1C(=O)O [ampicillin] | completely hydrolyzed |
| CC1=C(C(=O)O)N2C(=O)[C@@H](NC(=O)[C@H](N)c3ccccc3)[C@H]2SC1 [cephalexin] | completely hydrolyzed |
| CCN1CCN(C(=O)N[C@@H](C(=O)N[C@@H]2C(=O)N3[C@@H]2SC(C)(C)[C@@H]3C(=O)O)c2ccccc2)C(=O)C1=O [piperacillin] | completely hydrolyzed |
| Cc1onc(-c2ccccc2Cl)c1C(=O)N[C@@H]1C(=O)N2[C@@H]1SC(C)(C)[C@@H]2C(=O)O [cloxacillin] | remained unaffected |
